# Reference: the supplement of paper PMC12819154, “High-throughput peptide-centric local stability assay extends protein–ligand identification to membrane proteins, tissues and bacteria” (Nature Structural & Molecular Biology, 2025)
# Protein sequences, listed by entry. Tags and fused reporters are not part of them. Lines headed by an entry give the natural chain unless they say otherwise; changes in a name come on top.
# UniProt Q99ML1: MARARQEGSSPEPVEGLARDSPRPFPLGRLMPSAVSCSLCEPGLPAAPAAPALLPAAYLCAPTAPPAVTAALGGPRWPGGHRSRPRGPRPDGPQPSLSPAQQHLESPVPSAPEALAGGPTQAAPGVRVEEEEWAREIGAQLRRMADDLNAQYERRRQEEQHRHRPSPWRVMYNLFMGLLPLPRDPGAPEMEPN
# UniProt Q9CQ20, whole entry: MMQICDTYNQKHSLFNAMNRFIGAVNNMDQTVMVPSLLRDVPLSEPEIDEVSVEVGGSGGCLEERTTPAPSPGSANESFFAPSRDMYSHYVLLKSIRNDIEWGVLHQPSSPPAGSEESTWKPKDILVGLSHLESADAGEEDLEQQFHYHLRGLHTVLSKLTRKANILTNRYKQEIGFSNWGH
# UniProt Q99PP2: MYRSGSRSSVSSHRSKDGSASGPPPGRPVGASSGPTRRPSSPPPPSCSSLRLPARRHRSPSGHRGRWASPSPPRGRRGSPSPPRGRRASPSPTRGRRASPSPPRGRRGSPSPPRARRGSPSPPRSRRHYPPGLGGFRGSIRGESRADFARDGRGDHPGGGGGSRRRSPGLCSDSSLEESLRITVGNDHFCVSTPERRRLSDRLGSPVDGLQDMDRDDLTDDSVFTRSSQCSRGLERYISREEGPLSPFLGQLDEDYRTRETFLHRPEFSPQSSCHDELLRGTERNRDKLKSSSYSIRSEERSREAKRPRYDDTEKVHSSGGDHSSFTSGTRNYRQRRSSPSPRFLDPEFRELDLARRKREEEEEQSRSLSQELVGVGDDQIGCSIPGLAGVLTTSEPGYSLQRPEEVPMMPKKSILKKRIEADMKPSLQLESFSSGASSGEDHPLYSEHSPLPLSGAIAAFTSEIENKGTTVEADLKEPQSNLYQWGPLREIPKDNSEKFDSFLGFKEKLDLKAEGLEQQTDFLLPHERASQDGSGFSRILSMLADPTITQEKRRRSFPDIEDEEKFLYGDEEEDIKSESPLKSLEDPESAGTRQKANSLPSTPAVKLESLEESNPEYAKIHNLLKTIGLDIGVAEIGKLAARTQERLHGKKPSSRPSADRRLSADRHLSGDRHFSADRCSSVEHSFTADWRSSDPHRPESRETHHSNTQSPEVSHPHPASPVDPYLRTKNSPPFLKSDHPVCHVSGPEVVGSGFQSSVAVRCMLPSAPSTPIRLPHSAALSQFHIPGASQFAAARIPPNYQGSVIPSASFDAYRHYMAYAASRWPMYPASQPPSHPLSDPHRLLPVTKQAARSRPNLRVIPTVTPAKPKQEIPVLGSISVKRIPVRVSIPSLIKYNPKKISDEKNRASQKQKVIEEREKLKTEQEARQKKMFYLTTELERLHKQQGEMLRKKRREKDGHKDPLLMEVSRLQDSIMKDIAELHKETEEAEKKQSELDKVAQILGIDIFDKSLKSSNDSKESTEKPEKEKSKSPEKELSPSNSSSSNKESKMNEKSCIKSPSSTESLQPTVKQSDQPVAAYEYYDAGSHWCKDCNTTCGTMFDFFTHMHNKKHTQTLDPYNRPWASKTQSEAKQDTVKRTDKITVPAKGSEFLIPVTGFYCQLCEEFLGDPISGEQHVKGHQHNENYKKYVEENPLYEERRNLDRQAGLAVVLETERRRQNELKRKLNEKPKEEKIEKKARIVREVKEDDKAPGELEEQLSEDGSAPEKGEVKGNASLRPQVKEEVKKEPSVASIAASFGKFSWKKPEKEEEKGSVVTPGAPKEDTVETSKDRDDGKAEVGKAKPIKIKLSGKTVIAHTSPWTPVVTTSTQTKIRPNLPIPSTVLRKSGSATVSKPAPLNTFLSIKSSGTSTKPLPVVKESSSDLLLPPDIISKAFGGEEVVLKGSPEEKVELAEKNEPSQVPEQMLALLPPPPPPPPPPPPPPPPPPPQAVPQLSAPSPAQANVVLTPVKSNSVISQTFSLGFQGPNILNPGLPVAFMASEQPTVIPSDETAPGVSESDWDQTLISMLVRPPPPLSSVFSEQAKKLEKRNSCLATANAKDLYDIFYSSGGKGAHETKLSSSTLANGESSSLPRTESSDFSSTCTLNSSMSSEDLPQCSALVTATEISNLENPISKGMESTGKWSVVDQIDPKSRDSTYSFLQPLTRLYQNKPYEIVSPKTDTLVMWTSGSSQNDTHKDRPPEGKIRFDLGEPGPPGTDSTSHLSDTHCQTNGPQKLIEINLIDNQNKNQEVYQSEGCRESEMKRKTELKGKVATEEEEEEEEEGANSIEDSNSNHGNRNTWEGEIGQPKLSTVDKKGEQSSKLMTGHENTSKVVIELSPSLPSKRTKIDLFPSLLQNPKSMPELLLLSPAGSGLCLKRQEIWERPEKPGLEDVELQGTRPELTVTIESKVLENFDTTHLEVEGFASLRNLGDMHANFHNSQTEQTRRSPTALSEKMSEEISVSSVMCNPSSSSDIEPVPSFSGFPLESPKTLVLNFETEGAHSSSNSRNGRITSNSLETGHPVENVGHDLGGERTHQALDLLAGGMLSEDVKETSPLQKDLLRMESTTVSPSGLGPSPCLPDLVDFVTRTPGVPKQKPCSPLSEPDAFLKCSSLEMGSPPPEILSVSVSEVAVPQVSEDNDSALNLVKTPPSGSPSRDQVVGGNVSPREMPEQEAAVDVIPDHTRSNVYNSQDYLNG
# UniProt Q9CQ69: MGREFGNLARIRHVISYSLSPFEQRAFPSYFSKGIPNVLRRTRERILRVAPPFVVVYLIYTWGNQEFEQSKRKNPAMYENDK
# UniProt Q9CQ71: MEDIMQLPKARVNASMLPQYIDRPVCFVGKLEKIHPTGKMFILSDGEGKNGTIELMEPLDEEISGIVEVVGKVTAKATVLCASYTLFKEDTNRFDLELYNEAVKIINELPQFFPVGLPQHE
# UniProt Q9CQ49: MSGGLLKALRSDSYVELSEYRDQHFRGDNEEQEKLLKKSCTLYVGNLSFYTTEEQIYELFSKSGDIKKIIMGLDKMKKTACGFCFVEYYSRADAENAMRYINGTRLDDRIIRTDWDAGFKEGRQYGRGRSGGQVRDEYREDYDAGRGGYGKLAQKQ
# UniProt Q9CQ86: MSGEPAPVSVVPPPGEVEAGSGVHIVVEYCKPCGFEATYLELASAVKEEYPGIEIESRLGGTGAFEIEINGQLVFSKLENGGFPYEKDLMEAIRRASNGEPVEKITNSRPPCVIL
# UniProt Q9CQ39: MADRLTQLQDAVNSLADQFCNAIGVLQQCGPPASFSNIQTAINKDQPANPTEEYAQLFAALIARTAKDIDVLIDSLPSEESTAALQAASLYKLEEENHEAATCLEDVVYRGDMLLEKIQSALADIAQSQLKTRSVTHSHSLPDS
# UniProt Q9CPW9: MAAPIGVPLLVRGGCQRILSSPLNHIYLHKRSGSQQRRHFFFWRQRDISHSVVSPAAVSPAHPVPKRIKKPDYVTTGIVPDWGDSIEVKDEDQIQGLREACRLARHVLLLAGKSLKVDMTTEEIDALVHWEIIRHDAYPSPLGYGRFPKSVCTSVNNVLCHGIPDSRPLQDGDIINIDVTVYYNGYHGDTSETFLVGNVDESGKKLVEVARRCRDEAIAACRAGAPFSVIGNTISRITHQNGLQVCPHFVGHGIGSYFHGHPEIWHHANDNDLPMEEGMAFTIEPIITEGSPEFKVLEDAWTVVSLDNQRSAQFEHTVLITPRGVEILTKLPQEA
# UniProt Q99MS8: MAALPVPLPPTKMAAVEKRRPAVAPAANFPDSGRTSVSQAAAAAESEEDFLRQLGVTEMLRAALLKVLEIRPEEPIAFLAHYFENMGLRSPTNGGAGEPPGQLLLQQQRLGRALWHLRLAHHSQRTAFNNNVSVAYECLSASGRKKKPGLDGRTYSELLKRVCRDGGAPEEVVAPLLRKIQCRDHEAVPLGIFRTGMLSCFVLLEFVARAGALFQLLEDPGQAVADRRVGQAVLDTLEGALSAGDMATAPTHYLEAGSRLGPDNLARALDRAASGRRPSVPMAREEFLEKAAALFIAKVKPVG
# UniProt Q9CPT5: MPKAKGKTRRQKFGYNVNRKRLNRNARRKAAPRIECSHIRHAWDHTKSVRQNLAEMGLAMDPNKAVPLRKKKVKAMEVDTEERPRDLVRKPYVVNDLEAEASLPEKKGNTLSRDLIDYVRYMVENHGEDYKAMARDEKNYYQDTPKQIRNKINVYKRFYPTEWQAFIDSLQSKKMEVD
# UniProt Q9CQP0: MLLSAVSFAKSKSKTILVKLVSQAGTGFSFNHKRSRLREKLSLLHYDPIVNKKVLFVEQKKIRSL
# UniProt Q9CQ33: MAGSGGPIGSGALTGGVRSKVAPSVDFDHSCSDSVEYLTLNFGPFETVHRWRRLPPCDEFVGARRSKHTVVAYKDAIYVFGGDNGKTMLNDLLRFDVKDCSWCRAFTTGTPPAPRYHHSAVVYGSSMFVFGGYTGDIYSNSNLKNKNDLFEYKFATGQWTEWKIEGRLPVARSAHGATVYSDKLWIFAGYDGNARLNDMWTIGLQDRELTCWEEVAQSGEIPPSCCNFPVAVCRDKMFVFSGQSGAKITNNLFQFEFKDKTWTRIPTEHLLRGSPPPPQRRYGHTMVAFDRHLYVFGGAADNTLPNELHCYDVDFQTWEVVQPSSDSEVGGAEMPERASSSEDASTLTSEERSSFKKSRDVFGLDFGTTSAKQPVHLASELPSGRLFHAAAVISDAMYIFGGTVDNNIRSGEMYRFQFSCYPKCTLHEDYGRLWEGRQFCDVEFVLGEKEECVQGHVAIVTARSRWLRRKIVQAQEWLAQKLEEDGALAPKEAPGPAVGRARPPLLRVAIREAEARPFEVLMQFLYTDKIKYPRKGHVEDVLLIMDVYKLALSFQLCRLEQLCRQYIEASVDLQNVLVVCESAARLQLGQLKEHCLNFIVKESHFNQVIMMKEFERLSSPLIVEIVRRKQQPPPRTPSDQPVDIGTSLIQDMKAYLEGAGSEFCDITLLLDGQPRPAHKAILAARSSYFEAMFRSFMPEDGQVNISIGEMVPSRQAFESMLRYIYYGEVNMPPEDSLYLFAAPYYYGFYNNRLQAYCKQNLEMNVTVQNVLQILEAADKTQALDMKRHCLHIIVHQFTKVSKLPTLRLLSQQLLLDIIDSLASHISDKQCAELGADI
# UniProt Q99MB7: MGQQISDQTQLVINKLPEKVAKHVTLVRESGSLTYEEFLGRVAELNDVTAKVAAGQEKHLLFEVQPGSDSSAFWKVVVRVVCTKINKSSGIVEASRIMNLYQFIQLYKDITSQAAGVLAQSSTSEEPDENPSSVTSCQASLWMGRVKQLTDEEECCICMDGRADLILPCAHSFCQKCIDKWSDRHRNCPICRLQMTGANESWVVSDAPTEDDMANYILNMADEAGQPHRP
# UniProt Q9CQ48: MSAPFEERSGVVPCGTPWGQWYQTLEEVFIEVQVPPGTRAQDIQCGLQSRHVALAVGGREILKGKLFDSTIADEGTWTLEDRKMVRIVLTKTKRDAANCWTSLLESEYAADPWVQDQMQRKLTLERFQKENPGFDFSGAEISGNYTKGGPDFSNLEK
# UniProt Q99PL6: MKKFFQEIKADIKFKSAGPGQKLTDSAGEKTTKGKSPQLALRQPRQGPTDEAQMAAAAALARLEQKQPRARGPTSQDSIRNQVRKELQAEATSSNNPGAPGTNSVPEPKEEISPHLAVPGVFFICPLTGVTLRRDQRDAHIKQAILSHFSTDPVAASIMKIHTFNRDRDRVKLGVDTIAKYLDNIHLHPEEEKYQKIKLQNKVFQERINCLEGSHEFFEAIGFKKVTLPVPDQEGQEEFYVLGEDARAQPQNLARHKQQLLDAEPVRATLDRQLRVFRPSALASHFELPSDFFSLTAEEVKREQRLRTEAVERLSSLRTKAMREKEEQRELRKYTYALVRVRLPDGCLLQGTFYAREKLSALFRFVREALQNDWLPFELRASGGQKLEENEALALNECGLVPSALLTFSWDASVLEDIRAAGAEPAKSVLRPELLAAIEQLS
# UniProt Q9CQN6: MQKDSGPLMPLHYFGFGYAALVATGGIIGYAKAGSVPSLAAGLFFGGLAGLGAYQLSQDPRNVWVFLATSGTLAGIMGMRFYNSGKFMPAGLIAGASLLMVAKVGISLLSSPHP
# UniProt Q99MD6, whole entry: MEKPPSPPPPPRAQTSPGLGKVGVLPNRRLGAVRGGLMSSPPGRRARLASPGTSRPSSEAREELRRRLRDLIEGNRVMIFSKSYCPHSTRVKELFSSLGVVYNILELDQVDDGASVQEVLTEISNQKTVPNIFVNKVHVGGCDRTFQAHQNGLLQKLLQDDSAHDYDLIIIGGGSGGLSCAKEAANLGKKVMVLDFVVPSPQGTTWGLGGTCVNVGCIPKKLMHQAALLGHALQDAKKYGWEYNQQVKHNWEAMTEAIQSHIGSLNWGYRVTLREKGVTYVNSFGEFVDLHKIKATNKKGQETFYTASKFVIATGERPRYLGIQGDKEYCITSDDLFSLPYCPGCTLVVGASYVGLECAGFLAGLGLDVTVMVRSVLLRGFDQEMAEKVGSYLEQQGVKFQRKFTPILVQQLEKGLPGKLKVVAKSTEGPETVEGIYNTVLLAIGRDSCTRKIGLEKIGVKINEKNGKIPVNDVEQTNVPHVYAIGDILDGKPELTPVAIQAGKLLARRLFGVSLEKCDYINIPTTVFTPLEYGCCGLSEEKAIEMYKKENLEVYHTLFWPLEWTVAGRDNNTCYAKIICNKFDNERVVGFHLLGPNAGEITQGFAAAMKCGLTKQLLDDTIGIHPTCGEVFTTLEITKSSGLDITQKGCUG
# Some of the results follow. Most values lie at the level of the controls, where differences are scatter.
# Compound: CN[C@@H]1C[C@H]2O[C@@](C)([C@@H]1OC)n1c3ccccc3c3c4c(c5c6ccccc6n2c5c31)C(=O)NC4 [staurosporine]
# Assay: log2 fold change of tryptic peptide abundance, ligand vs vehicle (limited proteolysis) (log2 ratio); higher = more trypsin-susceptible (destabilized)
# Conditions: ligand concentration: 20 uM; sample: mouse liver crude lysate; replicate design: treated separately
row,Target,log2 fold change
1,"UniProt Q99P58 (peptide sequence: SLTTAFFR, peptide start residue: 83)",0.139
2,"UniProt Q99PT1 (peptide sequence: YIQHTYR, peptide start residue: 128)",-0.461
3,"UniProt Q99ML1 (peptide sequence: ARQEGSSPEPVEGLAR, peptide start residue: 4)",0.0912
4,"UniProt Q9CPR1 (peptide sequence: LADKTDHKGELPR, peptide start residue: 156)",-0.286
5,"UniProt Q9CQ20 (peptide sequence: KANILTNR, peptide start residue: 163)",-0.158
6,"UniProt Q9CQU5 (peptide sequence: LDGSHQELETLK, peptide start residue: 190)",0.103
7,"UniProt Q99MZ3 (peptide sequence: ITHISAEQK, peptide start residue: 664)",-0.16
8,"UniProt Q99PP2 (peptide sequence: IRPNLPIPSTVLRK, peptide start residue: 1373)",0.521
9,"UniProt Q9CQ69 (peptide sequence: HVISYSLSPFEQR, peptide start residue: 13)",-0.204
10,"UniProt Q9CQ71 (peptide sequence: MFILSDGEGK, peptide start residue: 40)",-0.047
11,"UniProt Q9CQ49 (peptide sequence: KIIMGLDK, peptide start residue: 68)",0.186
12,"UniProt Q99PN3 (peptide sequence: EHRPHTAVLVEK, peptide start residue: 129)",-0.376
13,"UniProt Q99N92 (peptide sequence: CLYALEEGIVR, peptide start residue: 88)",-0.402
14,"UniProt Q99N69 (peptide sequence: TLSSQGNTSPLK, peptide start residue: 46)",0.0382
15,"UniProt Q9CQ86 (peptide sequence: RASNGEPVEK, peptide start residue: 95)",-1.42
16,"UniProt Q9CQ39 (peptide sequence: SVTHSHSLPDS, peptide start residue: 134)",0.000266
17,"UniProt Q9CPW9 (peptide sequence: DISHSVVSPAAVSPAHPVPK, peptide start residue: 47)",0.0911
18,"UniProt Q99MS8 (peptide sequence: TYSELLKR, peptide start residue: 154)",-0.38

row,Target,log2 fold change
1,"UniProt Q9CQT1 (peptide sequence: EGATEETVR, peptide start residue: 114)",-0.213
2,"UniProt Q9CQG2 (peptide sequence: LRWYSCMLGKK, peptide start residue: 242)",-0.516
3,"UniProt Q9CR27 (peptide sequence: MVQVGVPVMAIR, peptide start residue: 142)",-0.0367
4,"UniProt Q99LT0 (peptide sequence: AQFEDRN, peptide start residue: 93)",-0.0825
5,"UniProt Q9CPT5 (peptide sequence: QKFGYNVNRK, peptide start residue: 11)",0.554
6,"UniProt Q9CR30 (peptide sequence: PSPPSVYHER, peptide start residue: 9)",-0.245
7,"UniProt Q9CQT7 (peptide sequence: RLSPIMLGK, peptide start residue: 23)",0.165
8,"UniProt Q9CQP0 (peptide sequence: LVSQAGTGFSFNHK, peptide start residue: 20)",-0.13
9,"UniProt Q9CPY0 (peptide sequence: KESSEVYLLATQYR, peptide start residue: 225)",-0.339
10,"UniProt Q9CQ33 (peptide sequence: DVFGLDFGTTSAK, peptide start residue: 360)",0.27
11,"UniProt Q9CPP0 (peptide sequence: DHDNQEIAVPVANLR, peptide start residue: 88)",-0.235
12,"UniProt Q99MB7 (peptide sequence: VAELNDVTAK, peptide start residue: 42)",0.228
13,"UniProt Q9CQ48 (peptide sequence: GGPDFSNLEK, peptide start residue: 148)",0.0647
14,"UniProt Q99PL6 (peptide sequence: GPTSQDSIR, peptide start residue: 72)",-0.211
15,"UniProt Q99M87 (peptide sequence: GGPSVDPEELFR, peptide start residue: 176)",-0.136
16,"UniProt Q9CQN6 (peptide sequence: VGISLLSSPHP, peptide start residue: 104)",-0.046
17,"UniProt Q99N11 (peptide sequence: NILAAPGILK, peptide start residue: 167)",-0.21
18,"UniProt Q99MD6 (peptide sequence: TFQAHQNGLLQK, peptide start residue: 145)",0.266
